These results are taken from PubChem BioAssay AID901 (National Center for Advancing Translational Sciences (NCATS), 2007).

This is one part of the list. Further columns of the screen follow, without active or inactive calls. Most of these compounds were active or inconclusive in the main read-out, so they are no random draw. Potencies come from curve fits of mixed quality, noted in brackets.

As a reminder, the AC50 is the concentration giving half of the maximal activity seen.

A short description of the assay: qHTS Assay for Identifying the Cell-Membrane Permeable IMPase Inhibitors. Conditions: CHO-M1 cells, IP1 accumulation, HTRF TR-FRET ratio; measured here: donor channel 620 nm AC50. (In general: Quantitative high-throughput screening tests each substance at several concentrations.)
Consider `O=C(NC1CCCC1)c1cccnc1N1CCCCCC1`, for which the AC50 was 0.126 µM [rising, full curve, poor fit].

`O=C(/C=C/c1ccc(F)cc1)N1CCCN(C(=O)/C=C/c2ccc(F)cc2)CC1`: the AC50 was 0.0562 µM [falling, full curve, poor fit].

On to `Cc1ccc(OCCn2cc(C(=O)c3cccs3)c3ccccc32)cc1`, for which the AC50 is 0.0631 µM [falling, full curve].

As for `COc1ccc(OC)c(S(=O)(=O)N(C)CC(=O)Nc2ccc3c(c2)OCCO3)c1`, the AC50 was 0.355 µM [falling, full curve, poor fit].

Regarding `COCCN(C(=O)CCC(=O)Nc1ccccn1)C(C(=O)NCCC(C)C)c1ccc(OC)cc1` (stereo not drawn), the AC50 was 0.0316 µM [rising, full curve, poor fit].

`CCC1=Nc2cc(C(=O)NCCc3ccc(OC)c(OC)c3)ccc2Sc2ccccc21`: the half-maximal activity concentration (AC50) was 0.0562 µM [falling, full curve].

Take `Cc1ccc(CNC(=O)C(NS(=O)(=O)c2cccs2)C(C)C)cc1` (stereo not drawn): the AC50 is 35.5 µM [falling, single point].

In the case of `CCOc1ccc(CCNC(=O)c2cccc(Nc3nc4ccccc4nc3-n3nc(C)cc3C)c2)cc1OCC`, the AC50 is 5.01 µM [falling, single point].

As for `Cc1ccc(C)n1-c1ccc(-c2nnc3n2CCCCC3)s1`, the AC50 is 15.8 µM [rising, single point].

Regarding `CCOC(=O)CSc1nnc(C2CCCCC2)n1C`, the AC50 was 31.6 µM [falling, single point].

For `Cc1ccc(-c2nc3cc(NC(=O)c4cc5ccccc5o4)ccc3o2)cc1Cl`, the AC50 was 22.4 µM [falling, single point].

With `O=C(Nc1ccc(Br)cc1F)c1sccc1-n1cccc1`, the AC50 was 6.31 µM [falling, single point].

`CCC(=O)NC(Nc1sc2c(c1C(=O)OC)CCN(C)C2)(C(F)(F)F)C(F)(F)F`: the AC50 was 0.2 µM [falling, full curve].

Consider `Cc1cccn2c(=O)c3cc(C(=O)NCc4cccnc4)c(=N)n(C(C)C)c3nc12`, for which the AC50 is 31.6 µM [rising, partial curve, poor fit].

Consider `CN(C)/C=N/c1ncnc2c1cnn2-c1ccc(C(F)(F)F)cn1`, for which the AC50 is 5.01 µM [falling, single point].

On to `COCc1nc2sc(C)c(C)c2c(=O)[nH]1`, for which the AC50 was 31.6 µM [rising, single point].

For `O=C(Nc1ccccc1Cl)NC1(C(=O)N2CCCCC2)CCCCC1`, the AC50 was 12.6 µM [falling, single point].

`Cc1cccc(NC(=O)CSc2nc(-c3cccs3)cc(C(F)(F)F)c2C#N)c1C`: the AC50 was 31.6 µM [rising, single point].

In the case of `Cc1cccc(NC(=O)CSc2nnc(-c3ccccc3Br)o2)c1C`, the AC50 was 1.58 µM [falling, full curve, poor fit].

For the molecule `COC(=O)c1cc(Br)c(=O)n(-c2cc(C)on2)c1`, the AC50 was 25.1 µM [rising, single point].

As for `COc1cc(/C=C/C(=O)c2c(O)ccc3c(C)cc(=O)oc23)ccc1O`, the AC50 was 35.5 µM [falling, single point].

As to `Cc1cc(=O)oc2c(CN3CCCCC3)c(O)c(Cl)cc12`, the AC50 is 12.6 µM [rising, partial curve].

Regarding `Cc1c(/C=C/C(=O)c2ccc(Cl)s2)cnn1C`, the AC50 was 1 µM [falling, full curve].

As to `O=C(O)CCCNS(=O)(=O)c1ccc(F)cc1`, the AC50 is 0.0316 µM [rising, full curve, poor fit].

For the molecule `CCOC(=O)C(N)CSC1CC(=O)N(c2ccc(C(=O)OC)cc2)C1=O` (stereo not drawn), the AC50 was 0.0158 µM [rising, full curve, poor fit].

With `CN(C)C(=S)NCc1ccccc1`, the AC50 was 2.51 µM [falling, full curve].

Regarding `N/C(=N\OC(=O)c1ccccc1Cl)c1cccnc1`, the AC50 is 15.8 µM [rising, single point].

With `Clc1ccc(C2=Nn3c(nnc3-c3cccs3)SC2)cc1`, the AC50 is 5.01 µM [falling, single point].

Turning to `COc1ccc(C(=O)NCCn2ccc3ccccc32)c(OC)c1`, the AC50 was 6.31 µM [rising, partial curve, poor fit].

On to `CCOC(=O)N1CCN(c2cc(=O)n(C3CCCCC3)c(=O)[nH]2)CC1`, for which the AC50 was 0.0316 µM [rising, full curve, poor fit].

`CC1=CC2=C(OC1N(C)C)c1cccc3cccc(c13)C2=O` (stereo not drawn): the AC50 was 25.1 µM [rising, partial curve].

For the molecule `Cc1ccc(N/C(N)=N/c2nc(CSc3ccc(C)cc3)cc(=O)[nH]2)cc1`, the AC50 was 0.0126 µM [falling, full curve, poor fit].

For `Cc1cc(-c2ccccc2)nnc1NCCN1CCOCC1`, the AC50 is 0.00251 µM [falling, full curve, poor fit].

Regarding `CSCC[C@H](NC(=O)NCCC1=CCCCC1)C(=O)O`, the AC50 is 15.8 µM [falling, partial curve].

Regarding `O=C(O)CC(NS(=O)(=O)c1cccc2nsnc12)c1ccc(F)cc1` (stereo not drawn), the AC50 is 3.98 µM [rising, full curve, poor fit].

`O=C(CSc1nnc2c(n1)[nH]c1ccccc12)OCc1ccccc1`: the AC50 was 31.6 µM [falling, single point].

With `Cc1[nH]c2ccc(-c3nnc(SCC(=O)c4ccc(F)cc4)o3)cc2c1C`, the AC50 is 0.631 µM [rising, full curve, poor fit].

On to `CCc1nnc2c3ccccc3nc(Nc3ccccc3OC)n12`, for which the AC50 was 5.62 µM [rising, single point].

With `COCCCN1C(=O)C(O)=C(C(=O)c2ccc(C)o2)C1c1cccc(Br)c1` (stereo not drawn), the AC50 was 10 µM [rising, partial curve].

In the case of `COc1cccc(NC(=O)CCSc2ccc3ccccc3n2)c1`, the AC50 was 12.6 µM [rising, single point].

For `Cc1cc(C)cc(OCC(=O)Nc2ccc3c(c2)C(=O)c2ccccc2C3=O)c1`, the AC50 is 22.4 µM [rising, single point].

Regarding `Cc1ccc(Cn2ccc(NC(=O)c3cc(-c4ccc(Br)cc4)on3)n2)cc1`, the AC50 was 0.794 µM [falling, full curve].

For the molecule `CC1CN(S(=O)(=O)c2cccc(-c3cn4cccnc4n3)c2)CC(C)O1` (stereo not drawn), the AC50 is 10 µM [rising, partial curve, poor fit].
